# Reference: the supplement of paper PMC12823440, “Inhibitors supercharge kinase turnover through native proteolytic circuits” (Nature, 2025)
# The chains behind the UniProt entries cited, without tags or fusion partners. Where a name states a change or a piece, a line headed by the entry shows the natural chain unless it says otherwise.
# UniProt Q13546: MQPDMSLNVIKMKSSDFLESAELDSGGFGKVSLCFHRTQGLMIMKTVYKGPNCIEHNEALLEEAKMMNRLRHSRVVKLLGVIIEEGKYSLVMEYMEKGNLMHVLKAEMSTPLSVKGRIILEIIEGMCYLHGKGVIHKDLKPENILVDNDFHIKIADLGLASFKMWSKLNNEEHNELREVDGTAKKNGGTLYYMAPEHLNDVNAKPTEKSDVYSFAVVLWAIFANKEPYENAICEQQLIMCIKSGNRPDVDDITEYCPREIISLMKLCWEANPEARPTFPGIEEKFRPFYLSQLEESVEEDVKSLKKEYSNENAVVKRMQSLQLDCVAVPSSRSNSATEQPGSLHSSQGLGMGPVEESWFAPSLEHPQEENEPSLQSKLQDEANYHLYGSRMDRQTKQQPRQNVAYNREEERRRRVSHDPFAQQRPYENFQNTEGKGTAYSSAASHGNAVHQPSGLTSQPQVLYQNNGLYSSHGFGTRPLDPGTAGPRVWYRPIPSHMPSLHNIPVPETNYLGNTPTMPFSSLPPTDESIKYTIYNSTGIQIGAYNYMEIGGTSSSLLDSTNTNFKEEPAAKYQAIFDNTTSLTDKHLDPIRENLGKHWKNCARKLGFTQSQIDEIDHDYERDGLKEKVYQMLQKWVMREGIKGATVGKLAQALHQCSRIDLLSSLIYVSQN
# UniProt Q01974, whole entry: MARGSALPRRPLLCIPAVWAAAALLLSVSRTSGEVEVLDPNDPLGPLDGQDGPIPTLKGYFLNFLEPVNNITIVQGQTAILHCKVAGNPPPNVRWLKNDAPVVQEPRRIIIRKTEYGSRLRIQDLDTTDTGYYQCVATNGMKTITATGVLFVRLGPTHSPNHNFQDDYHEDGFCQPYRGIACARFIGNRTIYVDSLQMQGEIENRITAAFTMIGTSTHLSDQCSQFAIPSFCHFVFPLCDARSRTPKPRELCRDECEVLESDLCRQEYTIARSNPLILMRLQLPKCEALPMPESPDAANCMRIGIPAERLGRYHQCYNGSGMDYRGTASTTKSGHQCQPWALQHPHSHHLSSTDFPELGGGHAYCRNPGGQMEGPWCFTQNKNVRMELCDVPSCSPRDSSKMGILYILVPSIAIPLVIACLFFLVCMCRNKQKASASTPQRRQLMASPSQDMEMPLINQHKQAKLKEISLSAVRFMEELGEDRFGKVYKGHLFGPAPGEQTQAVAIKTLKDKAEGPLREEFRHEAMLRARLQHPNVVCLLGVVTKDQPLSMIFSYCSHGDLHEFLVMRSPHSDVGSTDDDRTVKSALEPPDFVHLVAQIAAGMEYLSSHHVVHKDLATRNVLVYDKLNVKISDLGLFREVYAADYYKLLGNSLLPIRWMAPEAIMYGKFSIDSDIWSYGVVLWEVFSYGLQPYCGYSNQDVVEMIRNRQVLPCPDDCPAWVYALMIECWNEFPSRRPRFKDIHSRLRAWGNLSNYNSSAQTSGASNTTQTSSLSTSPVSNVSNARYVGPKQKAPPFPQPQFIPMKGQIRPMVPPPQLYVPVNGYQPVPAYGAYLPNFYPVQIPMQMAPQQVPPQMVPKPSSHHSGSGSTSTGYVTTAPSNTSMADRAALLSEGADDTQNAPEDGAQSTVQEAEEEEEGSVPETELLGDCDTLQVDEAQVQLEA
# UniProt Q15418, whole entry: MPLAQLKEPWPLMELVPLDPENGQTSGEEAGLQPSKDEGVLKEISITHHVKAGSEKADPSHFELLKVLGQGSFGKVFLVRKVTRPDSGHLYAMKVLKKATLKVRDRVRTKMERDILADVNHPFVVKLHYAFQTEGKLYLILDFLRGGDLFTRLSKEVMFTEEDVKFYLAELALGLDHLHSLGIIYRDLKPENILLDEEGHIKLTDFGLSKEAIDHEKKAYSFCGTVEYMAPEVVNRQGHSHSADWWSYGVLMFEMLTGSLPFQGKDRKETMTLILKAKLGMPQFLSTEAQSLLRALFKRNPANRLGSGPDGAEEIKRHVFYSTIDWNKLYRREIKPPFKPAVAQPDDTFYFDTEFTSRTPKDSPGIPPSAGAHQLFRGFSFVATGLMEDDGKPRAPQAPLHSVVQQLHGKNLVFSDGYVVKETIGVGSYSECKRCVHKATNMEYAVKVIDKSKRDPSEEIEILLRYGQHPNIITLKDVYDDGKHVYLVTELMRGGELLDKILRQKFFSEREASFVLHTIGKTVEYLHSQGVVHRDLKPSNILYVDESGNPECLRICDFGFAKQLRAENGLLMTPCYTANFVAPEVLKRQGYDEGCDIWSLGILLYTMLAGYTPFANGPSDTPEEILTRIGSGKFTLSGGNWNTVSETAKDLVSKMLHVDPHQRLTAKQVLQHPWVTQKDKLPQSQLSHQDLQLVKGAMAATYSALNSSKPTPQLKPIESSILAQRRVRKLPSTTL
# UniProt Q9NYA1, whole entry: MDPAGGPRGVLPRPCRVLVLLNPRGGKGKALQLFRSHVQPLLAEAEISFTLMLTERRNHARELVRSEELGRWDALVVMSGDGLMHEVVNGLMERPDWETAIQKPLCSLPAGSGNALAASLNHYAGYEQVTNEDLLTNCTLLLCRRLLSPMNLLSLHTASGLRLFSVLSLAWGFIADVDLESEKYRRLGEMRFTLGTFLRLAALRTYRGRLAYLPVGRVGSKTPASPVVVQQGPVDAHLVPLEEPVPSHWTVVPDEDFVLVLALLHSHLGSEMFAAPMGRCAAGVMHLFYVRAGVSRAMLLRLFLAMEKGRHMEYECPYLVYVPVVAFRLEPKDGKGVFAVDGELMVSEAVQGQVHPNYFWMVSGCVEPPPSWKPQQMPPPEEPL
# UniProt Q9Y6E0: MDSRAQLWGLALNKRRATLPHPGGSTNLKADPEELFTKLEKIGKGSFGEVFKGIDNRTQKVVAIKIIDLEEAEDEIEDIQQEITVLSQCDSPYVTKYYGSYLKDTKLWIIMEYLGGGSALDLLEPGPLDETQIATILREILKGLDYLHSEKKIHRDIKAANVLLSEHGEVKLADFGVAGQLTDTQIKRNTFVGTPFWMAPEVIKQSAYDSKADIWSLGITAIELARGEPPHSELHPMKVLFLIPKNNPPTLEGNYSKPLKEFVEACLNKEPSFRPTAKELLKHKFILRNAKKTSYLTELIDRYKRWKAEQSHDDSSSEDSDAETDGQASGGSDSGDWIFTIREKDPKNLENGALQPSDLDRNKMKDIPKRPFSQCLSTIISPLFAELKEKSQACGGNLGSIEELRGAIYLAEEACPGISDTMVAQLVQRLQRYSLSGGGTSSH
# UniProt P42680: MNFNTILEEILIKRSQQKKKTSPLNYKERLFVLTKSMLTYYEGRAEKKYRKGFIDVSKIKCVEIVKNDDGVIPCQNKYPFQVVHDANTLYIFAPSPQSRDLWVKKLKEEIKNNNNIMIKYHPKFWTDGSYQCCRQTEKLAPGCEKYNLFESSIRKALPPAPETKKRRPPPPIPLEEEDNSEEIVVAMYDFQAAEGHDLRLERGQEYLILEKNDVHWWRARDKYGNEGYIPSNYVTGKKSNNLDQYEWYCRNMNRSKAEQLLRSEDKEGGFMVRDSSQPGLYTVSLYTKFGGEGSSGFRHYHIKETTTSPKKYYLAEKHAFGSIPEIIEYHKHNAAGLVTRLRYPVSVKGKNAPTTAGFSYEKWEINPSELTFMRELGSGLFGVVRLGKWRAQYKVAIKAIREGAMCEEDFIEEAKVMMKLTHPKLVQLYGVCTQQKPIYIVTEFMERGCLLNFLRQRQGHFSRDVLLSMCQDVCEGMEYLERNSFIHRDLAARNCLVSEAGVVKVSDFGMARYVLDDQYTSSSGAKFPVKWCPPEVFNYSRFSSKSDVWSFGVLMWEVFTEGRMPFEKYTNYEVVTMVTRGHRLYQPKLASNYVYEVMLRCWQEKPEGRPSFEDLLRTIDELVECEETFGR
# UniProt P29597: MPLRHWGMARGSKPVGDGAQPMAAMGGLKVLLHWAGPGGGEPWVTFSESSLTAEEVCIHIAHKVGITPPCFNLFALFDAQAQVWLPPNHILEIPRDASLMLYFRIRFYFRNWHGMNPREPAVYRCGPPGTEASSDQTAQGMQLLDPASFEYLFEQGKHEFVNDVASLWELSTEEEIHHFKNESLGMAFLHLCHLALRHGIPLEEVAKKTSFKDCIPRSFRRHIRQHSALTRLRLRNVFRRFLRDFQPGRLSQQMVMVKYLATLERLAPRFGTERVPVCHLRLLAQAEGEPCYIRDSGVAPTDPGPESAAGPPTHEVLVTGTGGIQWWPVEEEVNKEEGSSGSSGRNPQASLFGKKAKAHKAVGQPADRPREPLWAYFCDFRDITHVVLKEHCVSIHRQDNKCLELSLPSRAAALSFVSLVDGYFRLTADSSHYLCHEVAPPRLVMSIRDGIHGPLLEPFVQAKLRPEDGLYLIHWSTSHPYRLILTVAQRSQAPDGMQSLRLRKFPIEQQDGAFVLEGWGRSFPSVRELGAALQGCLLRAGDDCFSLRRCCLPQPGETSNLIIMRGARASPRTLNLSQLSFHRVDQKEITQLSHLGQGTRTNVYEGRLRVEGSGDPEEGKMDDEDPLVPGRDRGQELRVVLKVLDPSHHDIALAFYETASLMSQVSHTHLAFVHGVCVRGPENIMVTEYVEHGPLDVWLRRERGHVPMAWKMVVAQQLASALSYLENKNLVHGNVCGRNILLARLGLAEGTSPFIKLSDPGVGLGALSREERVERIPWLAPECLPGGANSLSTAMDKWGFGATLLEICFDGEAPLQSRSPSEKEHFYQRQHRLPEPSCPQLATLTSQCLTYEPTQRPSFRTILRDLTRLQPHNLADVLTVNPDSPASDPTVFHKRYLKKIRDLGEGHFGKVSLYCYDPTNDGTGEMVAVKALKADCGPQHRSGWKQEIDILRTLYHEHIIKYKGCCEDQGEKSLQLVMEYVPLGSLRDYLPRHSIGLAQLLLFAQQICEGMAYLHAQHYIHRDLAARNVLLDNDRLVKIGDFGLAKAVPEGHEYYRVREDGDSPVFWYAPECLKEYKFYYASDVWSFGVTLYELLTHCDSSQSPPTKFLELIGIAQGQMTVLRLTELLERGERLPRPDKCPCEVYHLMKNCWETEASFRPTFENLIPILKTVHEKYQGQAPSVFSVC
# UniProt Q6PHR2: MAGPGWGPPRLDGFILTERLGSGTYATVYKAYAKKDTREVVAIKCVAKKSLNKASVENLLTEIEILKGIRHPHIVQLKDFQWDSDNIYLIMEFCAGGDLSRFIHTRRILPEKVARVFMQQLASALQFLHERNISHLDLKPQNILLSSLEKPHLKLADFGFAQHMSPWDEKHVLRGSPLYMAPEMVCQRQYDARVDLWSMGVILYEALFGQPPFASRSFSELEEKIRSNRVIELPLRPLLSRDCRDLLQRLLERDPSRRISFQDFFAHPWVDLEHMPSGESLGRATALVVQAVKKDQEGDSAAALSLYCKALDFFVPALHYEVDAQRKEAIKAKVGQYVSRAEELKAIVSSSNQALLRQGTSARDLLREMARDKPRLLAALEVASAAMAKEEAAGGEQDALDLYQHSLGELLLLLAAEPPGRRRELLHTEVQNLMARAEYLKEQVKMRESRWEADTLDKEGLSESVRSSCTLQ
# UniProt P07947, whole entry, looked up: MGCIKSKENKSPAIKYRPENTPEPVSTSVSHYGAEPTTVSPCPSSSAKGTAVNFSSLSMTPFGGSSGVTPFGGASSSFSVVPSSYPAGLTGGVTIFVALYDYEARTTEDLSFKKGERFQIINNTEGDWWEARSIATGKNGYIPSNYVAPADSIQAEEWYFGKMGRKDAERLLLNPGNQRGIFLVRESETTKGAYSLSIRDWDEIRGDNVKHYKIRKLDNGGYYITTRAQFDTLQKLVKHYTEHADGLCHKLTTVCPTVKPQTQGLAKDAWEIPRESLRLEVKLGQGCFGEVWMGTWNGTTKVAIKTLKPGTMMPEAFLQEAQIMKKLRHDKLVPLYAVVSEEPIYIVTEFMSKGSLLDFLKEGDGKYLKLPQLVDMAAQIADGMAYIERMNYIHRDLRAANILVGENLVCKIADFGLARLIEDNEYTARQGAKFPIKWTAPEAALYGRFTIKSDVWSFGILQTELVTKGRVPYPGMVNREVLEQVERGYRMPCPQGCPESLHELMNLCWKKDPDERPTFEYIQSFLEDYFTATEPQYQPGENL
# UniProt P31749: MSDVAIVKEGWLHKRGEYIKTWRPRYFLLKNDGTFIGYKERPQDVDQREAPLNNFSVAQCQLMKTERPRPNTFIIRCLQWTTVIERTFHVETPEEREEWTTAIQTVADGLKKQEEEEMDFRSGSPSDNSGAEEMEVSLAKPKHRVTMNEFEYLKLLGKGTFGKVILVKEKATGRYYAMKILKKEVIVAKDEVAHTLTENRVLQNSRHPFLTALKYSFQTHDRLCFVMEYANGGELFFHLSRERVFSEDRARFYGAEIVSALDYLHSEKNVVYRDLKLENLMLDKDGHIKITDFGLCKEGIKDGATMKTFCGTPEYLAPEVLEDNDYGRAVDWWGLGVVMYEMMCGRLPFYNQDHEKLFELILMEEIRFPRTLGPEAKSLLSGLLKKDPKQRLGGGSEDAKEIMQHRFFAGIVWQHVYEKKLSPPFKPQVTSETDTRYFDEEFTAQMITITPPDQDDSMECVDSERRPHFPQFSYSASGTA
# Counter-ions that a name gives are not always drawn. The list shows a part of the results. Hit calls seldom repeat between salt and free forms of one compound.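 In K562 cells expressing nanoluciferase-fused kinases, luminescence was recorded at 4 h intervals between 2 and 18 h, normalized as percent of control with DMSO at 100% and a positive control at 0%. A significant (2 sigma) signal drop marks a time point as decreased. The authors' rule for a hit is not shown and takes in more than the number of time points.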
# Experiments:
# Conditions in all cases: K562; 2-18 h
# [1] = target: RET (UniProt P07949); assay: kinase-Nluc reporter destabilization hit call (1 = scored as downregulated) (binary); higher = compound decreases kinase abundance
# [2] = target: RET_M918T (clone: RET_mut) (UniProt P07949); assay: as above
# [3] = target: RIOK1 (UniProt Q9BRS2); assay: as above
# [4] = target: RIPK1 (UniProt Q13546); assay: as above
# [5] = target: RIPK2 (UniProt O43353); assay: as above
# [6] = target: ROR2 (UniProt Q01974); assay: as above
# [7] = target: RPS6KA1 (UniProt Q15418); assay: as above
# [8] = target: SPHK1 (UniProt Q9NYA1); assay: as above
# [9] = target: SRC (UniProt P12931); assay: as above
# [10] = target: STK24 (UniProt Q9Y6E0); assay: as above
# [11] = target: STK38 (UniProt Q15208); assay: as above
# [12] = target: SYK (UniProt P43405); assay: as above
# [13] = target: TEC (UniProt P42680); assay: as above
# [14] = target: TYK2 (UniProt P29597); assay: as above
# [15] = target: ULK3 (UniProt Q6PHR2); assay: as above
# [16] = target: YES1 (UniProt P07947); assay: as above
# [17] = target: ZAK (UniProt Q9NYL2); assay: as above
# [18] = target: ZAP70 (UniProt P43403); assay: as above
# [19] = target: ABL1 (UniProt P00519); assay: number of time points (of 5) at which kinase-Nluc abundance scored as decreased, DMSO-normalised (count); higher = more persistent destabilization
# [20] = target: AKT1 (UniProt P31749); assay: as above
Compound,kinase-Nluc reporter destabilization hit call [1],kinase-Nluc reporter destabilization hit call [2],kinase-Nluc reporter destabilization hit call [3],kinase-Nluc reporter destabilization hit call [4],kinase-Nluc reporter destabilization hit call [5],kinase-Nluc reporter destabilization hit call [6],kinase-Nluc reporter destabilization hit call [7],kinase-Nluc reporter destabilization hit call [8],kinase-Nluc reporter destabilization hit call [9],kinase-Nluc reporter destabilization hit call [10],kinase-Nluc reporter destabilization hit call [11],kinase-Nluc reporter destabilization hit call [12],kinase-Nluc reporter destabilization hit call [13],kinase-Nluc reporter destabilization hit call [14],kinase-Nluc reporter destabilization hit call [15],kinase-Nluc reporter destabilization hit call [16],kinase-Nluc reporter destabilization hit call [17],kinase-Nluc reporter destabilization hit call [18],number of time points [19],number of time points [20]
O=c1oc2cc(O)ccc2c2ccccc12 [Urolithin B] (10 µM),inactive: 0,inactive: 0,inactive: 0,inactive: 0,inactive: 0,inactive: 0,inactive: 0,inactive: 0,inactive: 0,inactive: 0,inactive: 0,inactive: 0,inactive: 0,inactive: 0,inactive: 0,inactive: 0,inactive: 0,inactive: 0,0,0
Cc1c(CN2CCN(S(C)(=O)=O)CC2)sc2c(N3CCOCC3)nc(-c3cnc(N)nc3)nc12 (2.5 µM),inactive: 0,inactive: 0,inactive: 0,inactive: 0,inactive: 0,inactive: 0,inactive: 0,inactive: 0,inactive: 0,inactive: 0,inactive: 0,inactive: 0,inactive: 0,inactive: 0,inactive: 0,inactive: 0,inactive: 0,inactive: 0,0,0
O=[N+]([O-])c1cc(C(F)(F)F)cc([N+](=O)[O-])c1NNC(=S)Nc1ccc(F)cc1 (10 µM),inactive: 0,inactive: 0,inactive: 0,inactive: 0,inactive: 0,inactive: 0,inactive: 0,inactive: 0,inactive: 0,inactive: 0,inactive: 0,inactive: 0,inactive: 0,inactive: 0,inactive: 0,inactive: 0,inactive: 0,inactive: 0,0,0
CC1CCc2nc(N)c(C#N)c(-c3cccnc3)c2C1 (stereo not given) (10 µM),inactive: 0,inactive: 0,inactive: 0,inactive: 0,inactive: 0,inactive: 0,inactive: 0,inactive: 0,inactive: 0,inactive: 0,inactive: 0,inactive: 0,inactive: 0,inactive: 0,inactive: 0,inactive: 0,inactive: 0,inactive: 0,0,0
Cc1ccc2nc(NC(=O)CSc3nc4c(c(=O)n3-c3ccccc3)SCC4)sc2c1 (2 µM),inactive: 0,inactive: 0,inactive: 0,inactive: 0,inactive: 0,inactive: 0,inactive: 0,inactive: 0,inactive: 0,inactive: 0,inactive: 0,inactive: 0,inactive: 0,inactive: 0,inactive: 0,inactive: 0,inactive: 0,inactive: 0,0,0
Cc1cc(O)c(C(C)C)cc1N=O [Poloxime] (10 µM),inactive: 0,inactive: 0,inactive: 0,inactive: 0,inactive: 0,inactive: 0,inactive: 0,inactive: 0,inactive: 0,inactive: 0,inactive: 0,inactive: 0,inactive: 0,inactive: 0,inactive: 0,inactive: 0,inactive: 0,inactive: 0,0,0
C/C(=C1/C(=O)Nc2ccc(NC(N)=O)cc21)c1ccc[nH]1 (10 µM),inactive: 0,inactive: 0,inactive: 0,inactive: 0,inactive: 0,inactive: 0,inactive: 0,inactive: 0,inactive: 0,inactive: 0,inactive: 0,inactive: 0,inactive: 0,inactive: 0,inactive: 0,inactive: 0,inactive: 0,inactive: 0,0,0
CNC(=O)Nc1ccc(-c2cc(-c3ccnc(Nc4ccc(C)c(S(=O)(=O)N(C)C)c4)n3)ccn2)cc1 [hSMG-1 inhibitor 11e] (2.5 µM),inactive: 0,inactive: 0,inactive: 0,inactive: 0,inactive: 0,inactive: 0,inactive: 0,inactive: 0,inactive: 0,inactive: 0,inactive: 0,inactive: 0,inactive: 0,inactive: 0,inactive: 0,inactive: 0,inactive: 0,inactive: 0,4,0
CC(C)CN[C@H]1CS(=O)(=O)C[C@@H]1S(=O)(=O)c1ccc(Cl)cc1 (10 µM),inactive: 0,inactive: 0,inactive: 0,inactive: 0,inactive: 0,inactive: 0,inactive: 0,inactive: 0,inactive: 0,inactive: 0,inactive: 0,inactive: 0,inactive: 0,inactive: 0,inactive: 0,inactive: 0,inactive: 0,inactive: 0,1,0
O=C1Nc2nc(-c3c(O)cccc3OCC3CC3)cc([C@@H]3CCCNC3)c2CO1 [Bay 65-1942 (hydrochloride)] (10 µM),inactive: 0,inactive: 0,inactive: 0,inactive: 0,inactive: 0,inactive: 0,inactive: 0,inactive: 0,inactive: 0,inactive: 0,inactive: 0,inactive: 0,inactive: 0,inactive: 0,inactive: 0,inactive: 0,inactive: 0,inactive: 0,4,0
Cc1cc(Nc2cc(Cl)nc(Oc3ccc([N+](=O)[O-])cc3)n2)n[nH]1 [Autophinib] (2.5 µM),inactive: 0,inactive: 0,inactive: 0,inactive: 0,inactive: 0,inactive: 0,inactive: 0,inactive: 0,inactive: 0,inactive: 0,inactive: 0,inactive: 0,inactive: 0,inactive: 0,inactive: 0,inactive: 0,inactive: 0,inactive: 0,0,0
CCN(CC)S(=O)(=O)c1ccc(OC)c(N2CCN(C(=O)c3ccc(F)cc3C(F)(F)F)CC2)c1 (10 µM),inactive: 0,inactive: 0,inactive: 0,inactive: 0,inactive: 0,inactive: 0,inactive: 0,inactive: 0,inactive: 0,inactive: 0,inactive: 0,inactive: 0,inactive: 0,inactive: 0,inactive: 0,inactive: 0,inactive: 0,inactive: 0,0,0
CS(=O)(=O)c1ccc(-c2noc(C(F)(F)F)c2-c2ccccc2)cc1 (10 µM),inactive: 0,inactive: 0,inactive: 0,inactive: 0,inactive: 0,inactive: 0,inactive: 0,inactive: 0,inactive: 0,inactive: 0,inactive: 0,inactive: 0,inactive: 0,inactive: 0,inactive: 0,inactive: 0,inactive: 0,inactive: 0,0,0
C[C@@H]1C(=O)O[C@H](C)[C@H]1C[C@@H](O)[C@](C)(O)[C@H]1CC[C@@]2(O)C3=CC(=O)[C@@H]4C[C@@H](O)[C@@H](O)C[C@]4(C)[C@H]3CC[C@]12C [Cyasterone] (10 µM),inactive: 0,inactive: 0,inactive: 0,inactive: 0,inactive: 0,inactive: 0,inactive: 0,inactive: 0,inactive: 0,inactive: 0,inactive: 0,inactive: 0,inactive: 0,inactive: 0,inactive: 0,inactive: 0,inactive: 0,inactive: 0,0,0
Nc1ncnc2c1c(-c1ccc(Oc3ccccc3)cc1)nn2C1CCNCC1 [N-piperidine Ibrutinib (hydrochloride)] (10 µM),inactive: 0,inactive: 0,inactive: 0,inactive: 0,inactive: 0,inactive: 0,inactive: 0,inactive: 0,inactive: 0,inactive: 0,inactive: 0,inactive: 0,inactive: 0,inactive: 0,inactive: 0,inactive: 0,inactive: 0,inactive: 0,0,0
c1cn2cc(-c3ccc4cn[nH]c4c3)nc(Nc3ccc(N4CCOCC4)cc3)c2n1 [Entospletinib] (10 µM),inactive: 0,inactive: 0,inactive: 0,inactive: 0,inactive: 0,inactive: 0,inactive: 0,inactive: 0,inactive: 0,inactive: 0,inactive: 0,inactive: 0,inactive: 0,inactive: 0,inactive: 0,inactive: 0,inactive: 0,inactive: 0,0,0
CC1CN(C(=O)Nc2ccc(Cl)c(Cl)c2)C(=Nc2ccc(F)cc2)S1 (stereo not given) (10 µM),inactive: 0,inactive: 0,inactive: 0,inactive: 0,inactive: 0,inactive: 0,inactive: 0,inactive: 0,inactive: 0,inactive: 0,inactive: 0,inactive: 0,inactive: 0,inactive: 0,inactive: 0,inactive: 0,inactive: 0,inactive: 0,0,0
OC[C@H]1O[C@@H](Oc2cc3c(O)cc(O)cc3[o+]c2-c2cc(O)c(O)c(O)c2)[C@H](O)[C@@H](O)[C@@H]1O [Delphinidin 3-glucoside (chloride)] (10 µM),inactive: 0,inactive: 0,inactive: 0,inactive: 0,inactive: 0,inactive: 0,inactive: 0,inactive: 0,inactive: 0,inactive: 0,inactive: 0,inactive: 0,inactive: 0,inactive: 0,inactive: 0,inactive: 0,inactive: 0,inactive: 0,0,0

# Record cards, from the list above. Values in the order: kinase-Nluc reporter destabilization hit call [1] | kinase-Nluc reporter destabilization hit call [2] | kinase-Nluc reporter destabilization hit call [3] | kinase-Nluc reporter destabilization hit call [4] | kinase-Nluc reporter destabilization hit call [5] | kinase-Nluc reporter destabilization hit call [6] | kinase-Nluc reporter destabilization hit call [7] | kinase-Nluc reporter destabilization hit call [8] | kinase-Nluc reporter destabilization hit call [9] | kinase-Nluc reporter destabilization hit call [10] | kinase-Nluc reporter destabilization hit call [11] | kinase-Nluc reporter destabilization hit call [12] | kinase-Nluc reporter destabilization hit call [13] | kinase-Nluc reporter destabilization hit call [14] | kinase-Nluc reporter destabilization hit call [15] | kinase-Nluc reporter destabilization hit call [16] | kinase-Nluc reporter destabilization hit call [17] | kinase-Nluc reporter destabilization hit call [18] | number of time points [19] | number of time points [20]
# `CC1CCc2nc(N)c(C#N)c(-c3cccnc3)c2C1` (stereo not given) (10 µM) is listed with inactive: 0 | inactive: 0 | inactive: 0 | inactive: 0 | inactive: 0 | inactive: 0 | inactive: 0 | inactive: 0 | inactive: 0 | inactive: 0 | inactive: 0 | inactive: 0 | inactive: 0 | inactive: 0 | inactive: 0 | inactive: 0 | inactive: 0 | inactive: 0 | 0 | 0
# `Cc1c(CN2CCN(S(C)(=O)=O)CC2)sc2c(N3CCOCC3)nc(-c3cnc(N)nc3)nc12` (2.5 µM) is listed with inactive: 0 | inactive: 0 | inactive: 0 | inactive: 0 | inactive: 0 | inactive: 0 | inactive: 0 | inactive: 0 | inactive: 0 | inactive: 0 | inactive: 0 | inactive: 0 | inactive: 0 | inactive: 0 | inactive: 0 | inactive: 0 | inactive: 0 | inactive: 0 | 0 | 0
